{"sequences": {"note": "Protein sequences, listed by entry. Tags and fused reporters are not part of them.", "UniProt O14744": "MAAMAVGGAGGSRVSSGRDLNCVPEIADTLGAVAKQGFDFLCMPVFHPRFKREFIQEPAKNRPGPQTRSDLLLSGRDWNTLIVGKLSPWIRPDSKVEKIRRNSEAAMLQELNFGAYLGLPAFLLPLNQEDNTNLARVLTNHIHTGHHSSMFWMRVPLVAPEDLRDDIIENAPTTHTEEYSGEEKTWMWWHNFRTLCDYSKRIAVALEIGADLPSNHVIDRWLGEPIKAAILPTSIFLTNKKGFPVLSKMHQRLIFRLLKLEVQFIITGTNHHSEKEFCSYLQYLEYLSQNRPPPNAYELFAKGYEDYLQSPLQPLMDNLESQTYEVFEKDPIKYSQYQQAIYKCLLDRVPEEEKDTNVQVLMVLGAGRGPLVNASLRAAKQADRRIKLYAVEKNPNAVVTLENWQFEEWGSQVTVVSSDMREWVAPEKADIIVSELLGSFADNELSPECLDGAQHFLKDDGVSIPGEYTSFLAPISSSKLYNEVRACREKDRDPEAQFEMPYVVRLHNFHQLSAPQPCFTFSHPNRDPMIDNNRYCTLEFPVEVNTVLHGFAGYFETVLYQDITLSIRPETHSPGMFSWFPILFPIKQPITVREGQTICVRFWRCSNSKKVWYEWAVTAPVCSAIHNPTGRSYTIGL"}, "source": "paper PMC5589623", "binders": {"B1": {"name": "SHARPIN (Shank-associated RH domain interacting protein) (protein, UniProt Q9H0F6 1-387)", "chain": "MAPPAGGAAAAASDLGSAAVLLAVHAAVRPLGAGPDAEAQLRRLQLSADPERPGRFRLELLGAGPGAVNLEWPLESVSYTIRGPTQHELQPPPGGPGTLSLHFLNPQEAQRWAVLVRGATVEGQNGSKSNSPPALGPEACPVSLPSPPEASTLKGPPPEADLPRSPGNLTEREELAGSLARAIAGGDEKGAAQVAAVLAQHRVALSVQLQEACFPPGPIRLQVTLEDAASAASAASSAHVALQVHPHCTVAALQEQVFSELGFPPAVQRWVIGRCLCVPERSLASYGVRQDGDPAFLYLLSAPREAPATGPSPQHPQKMDGELGRLFPPSLGLPPGPQPAASSLPSPLQPSWSCPSCTFINAPDRPGCEMCSTQRPCTWDPLAAAST"}}, "target": "PRMT5 (Protein arginine methyltransferase 5) (human (endogenous in A549)) (UniProt O14744)", "experiment": "co-IP; A549 cell lysates, endogenous proteins; protein A-agarose beads with SHARPIN or PRMT5 rabbit antibody, 4°C overnight, no-antibody (NA) control; western blot", "note": "Results are given in words; binding and its absence hold for the method and conditions named. Binding seen in cells or lysates may run through a third protein. Some entries that bind do so weakly or less than the wild type.", "data": [{"binder": "B1", "values": [{"measurement": "binding", "value": "binds"}]}]}
